Results are given in words; binding and its absence hold for the method and conditions named. Some results given as binding are weak or reduced against the parent protein; the word gives no strength.
Biological target: β-catenin as used in the two-hybrid like assay (UniProt P35222)
Assay: two-hybrid like assay

Sequences of proteins named here, by UniProt entry; tags and fusion partners are left off. Residues count along the entry.
UniProt P35222: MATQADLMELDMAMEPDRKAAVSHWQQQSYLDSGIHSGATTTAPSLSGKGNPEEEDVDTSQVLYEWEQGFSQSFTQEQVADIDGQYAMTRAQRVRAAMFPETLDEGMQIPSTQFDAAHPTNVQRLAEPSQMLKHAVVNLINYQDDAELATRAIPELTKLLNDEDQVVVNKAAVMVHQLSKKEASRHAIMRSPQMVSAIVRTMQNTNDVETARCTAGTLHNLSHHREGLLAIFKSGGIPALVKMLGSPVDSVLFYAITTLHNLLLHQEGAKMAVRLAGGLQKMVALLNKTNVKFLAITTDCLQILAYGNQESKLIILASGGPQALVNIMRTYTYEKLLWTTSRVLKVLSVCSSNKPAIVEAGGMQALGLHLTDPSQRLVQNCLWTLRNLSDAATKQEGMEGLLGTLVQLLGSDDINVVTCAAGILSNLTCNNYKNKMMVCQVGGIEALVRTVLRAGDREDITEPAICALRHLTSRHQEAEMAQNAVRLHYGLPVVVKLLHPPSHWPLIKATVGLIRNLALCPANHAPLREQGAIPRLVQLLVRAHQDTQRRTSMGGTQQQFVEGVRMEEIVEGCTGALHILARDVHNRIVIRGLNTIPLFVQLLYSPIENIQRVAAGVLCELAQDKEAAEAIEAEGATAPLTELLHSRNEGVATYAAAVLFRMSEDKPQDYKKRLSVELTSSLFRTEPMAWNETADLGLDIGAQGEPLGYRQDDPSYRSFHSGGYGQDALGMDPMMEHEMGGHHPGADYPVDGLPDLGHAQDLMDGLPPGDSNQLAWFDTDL
UniProt P12830, residues 731-882: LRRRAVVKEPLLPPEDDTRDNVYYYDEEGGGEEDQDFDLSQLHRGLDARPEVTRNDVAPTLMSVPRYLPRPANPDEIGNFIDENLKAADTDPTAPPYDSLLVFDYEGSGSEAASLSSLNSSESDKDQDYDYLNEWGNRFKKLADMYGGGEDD

## E-cadherin (from UniProt P12830 731-882)
  binding: binds

From US20210269482A1
